# “And” between values parts separate entries of the source, which are not always exact repeats. Equal values may be shown once. Screen size: about 410,000 compounds; about 18,000 (4.4%) were called active. Inconclusive means that the source gave no clear call. Such entries were picked first, then a sample of the others. Cut-off read from the data, not from the text of the source: active = activity change below about -60%; inconclusive = no clear call, values can overlap the other calls; inactive = above about -39%.
# Assay: qHTS Assay for inhibitors of the human cytomegalovirus (HCMV)
# Conditions: HFF cells, HCMV-luciferase reporter, 72 h; at 57.5 µM; stronger effect = lower value
# Method in brief: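 Steps: HFFs plated, 16 h 37C; compounds added; HCMV-luciferase added to MOI 1 PFU/cell; 72 h 37C; OneGlo reagent, 5 min room temperature; luminescence read, normalized to controls.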
# % is set by controls: 0 for no effect and ±100 for the full control effect.
row,Structure (SMILES),"activity change, negative = inhibition"
1,Cc1ccc(OCc2nnc(-c3ccc(Cl)cc3)o2)cc1,inactive: -27.7%
2,Cc1cc(SCC(=O)NN)c2cc(Br)ccc2n1,active: -66.5%
3,O=C1C2C3C=CC(C4CC34)C2C(=O)N1/N=C/c1ccc([N+](=O)[O-])o1 (stereo unspecified),inconclusive: -40.1%
4,O=C(Nc1cc(S(=O)(=O)N2CCOCC2)ccc1N1CCCCC1)c1ccccc1,inconclusive: -58%
5,NC(=O)CC(NC(=O)Cc1ccc(Br)cc1)c1ccc(NC2CCN(Cc3ccccc3)CC2)c([N+](=O)[O-])c1 (stereo unspecified),active: -93.5%
6,O=C(Nc1ccc(Cl)cc1F)c1oc(=O)c2ccccc2c1-c1ccccc1,inconclusive: -44.5%
7,Cc1cc(C)c2cc(C#N)c(N3CCNCC3)nc2c1,inactive: -15.9%
8,CC(C)Oc1cccc(C(=O)Nc2ccc(N3CCN(C)CC3)cc2)c1,inactive: 43.7%
9,O=C(c1cc(F)ccc1F)C1CCCN(C(=O)c2cccs2)C1 (stereo unspecified),inconclusive: -44.5%
10,COc1cc(/C=N/NC(=O)c2ccccn2)ccc1OC(=O)c1ccccc1Br,inconclusive: -52.9%
11,Cc1cccc2sc(N(CCCN(C)C)C(=O)c3cc4ccccc4oc3=O)nc12,inconclusive: -53.1%
12,CN(c1ccccc1)S(=O)(=O)c1ccc(Cl)c(C(=O)Nc2nc3ccccc3[nH]2)c1,inconclusive: -49.3%
13,CC1=C(C(=O)Nc2ccccc2)C(c2ccccc2C)n2ncc(C(=O)Nc3ccccc3)c2N1 (stereo unspecified),inconclusive: -54.8%
14,Cc1cccc(NCCNc2cccc(C)c2)c1,inactive: 80.5%
15,CCOc1ccc(OCc2ccc(C(=O)NCC3CCCO3)o2)cc1 (stereo unspecified),inactive: 61.6%
16,CCN(CC)S(=O)(=O)c1cccc(NC(=O)C2CC(=O)N(c3ccc4c(c3)OCCO4)C2)c1 (stereo unspecified),inconclusive: -41.5%
17,O=C(CC12CC3CC(CC(C3)C1)C2)NC(=S)Nc1ccc(CN2CCOCC2)cc1,inconclusive: -46.1%
18,COc1ccc(NC(=O)Nc2cccc(OC)c2)cc1,inactive: -21.4%
19,CSc1ncccc1C(=O)OCC(=O)c1cc(C)n(CC2CCCO2)c1C (stereo unspecified),inactive: 0%
20,O=C(C1CC(=O)N(c2ccc3c(c2)OCCO3)C1)N1CCN(c2ccccc2)CC1 (stereo unspecified),active: -70.2%
21,CCOc1ccccc1OCCCC(=O)Nc1sccc1C(N)=O,active: -61.1%
22,CCCCCCCCCC(=O)N/N=C(\C)c1cccnc1,inactive: 11.1%

# 2 compounds drawn at random from the list so far, as already listed:
row,Structure (SMILES),"activity change, negative = inhibition"
19,CSc1ncccc1C(=O)OCC(=O)c1cc(C)n(CC2CCCO2)c1C (stereo unspecified),inactive: 0%
17,O=C(CC12CC3CC(CC(C3)C1)C2)NC(=S)Nc1ccc(CN2CCOCC2)cc1,inconclusive: -46.1%

# (further entries)

row,Structure (SMILES),"activity change, negative = inhibition"
1,COc1ccc(Br)cc1CNC(=O)c1cc(=O)[nH]c2ccc(S(=O)(=O)N3CCCC3)cc12,inactive: 37.6%
2,CC1CCN(CCCNC(=O)c2nn(C)c3c2CS(=O)(=O)c2ccccc2-3)CC1,inconclusive: -40.5%
3,COc1ccc(/C=N\Nc2ccc([N+](=O)[O-])cc2)c(C(=O)O)c1OC,inconclusive: -41.1%
4,Cc1cc(C)cc(N2C(=O)CC(c3ccccc3)CC2=O)c1,inactive: -10.9%
5,O=C(CSc1nncn1-c1ccccc1)Nc1cc(F)ccc1F,inconclusive: -42.2%
6,Cc1ccc(CSCc2nc3ccccc3[nH]2)cc1,inconclusive: -58%
7,Cc1csc(NC(=O)CSc2nnc3c4ccccc4nc(C(C)(C)C)n23)n1,inconclusive: -54.3%
8,C=Cc1ccc(Cn2c(C)c(C(=O)NCc3ccc4c(c3)OCO4)sc2=O)cc1,inactive: 4.97%
9,O=C1CC2c3cc(-c4cc5ccccc5o4)ccc3CCN2C(=O)CN1Cc1ccccc1 (stereo unspecified),inconclusive: -42.3%
10,Cn1c(NCCCCO)nc2c1c(=O)n(Cc1ccc(Cl)cc1)c(=O)n2C,inactive: -14.9%
11,COc1ccc(CNC(=O)/C=C/c2ccco2)cc1OC,active: -89%
12,Cc1ccc(C)c(S(=O)(=O)Nc2ccc(C(=O)NCCCN3CCCC3=O)cc2)c1,inconclusive: -42.2%
13,CCCCCN1CSC(=S)N(Cc2ccccc2)C1,inconclusive: -58.4%
14,COc1ccc(NS(=O)(=O)c2csc(C(=O)N3CCCC3)c2)c(OC)c1,inconclusive: -52.4%
15,O=C(COC(=O)CNC(=O)c1ccc(Cl)cc1Cl)NC(=O)NC1CCCCC1,inconclusive: -40.9%
16,CC(C)c1ccc(N(CC(=O)NCc2cccnc2)S(=O)(=O)c2ccccc2)cc1,inconclusive: -46.5%
17,COc1ccccc1/C=N/NC(=O)CNC(=O)c1ccccc1,inconclusive: -44.3%
18,O=c1[nH]c(=S)[nH]c(O)c1N=Nc1cc2c(cc1[N+](=O)[O-])OCO2,inconclusive: -47.2%
19,CCOC(=O)C1=C(CN2CC(C)CC(C)C2)NC(=O)NC1c1ccc2c(c1)OCO2 (stereo unspecified),inconclusive: -40.1%
20,CCc1nn(CC(=O)NC(C)CCc2ccccc2)c(=O)c2cc3cc(F)ccc3n12 (stereo unspecified),inconclusive: -55.2%
21,O=C1C(=Cc2cccn2-c2ccccc2)C(=O)c2ccccc21,inconclusive: -44.3%
22,Cc1ccc2nc(NC(=O)CCCC(=O)O)sc2c1,inconclusive: -58.1%

row,Structure (SMILES),"activity change, negative = inhibition"
1,O=C(C1CN(C(=O)c2cc3cc(Cl)ccc3o2)c2ccccc2O1)N1CCCCC1 (stereo unspecified),inconclusive: -50%
2,CC(=O)/C(=N\Nc1ccccc1)Sc1nncn1C,inactive: 6.26%
3,Cn1c(CN2CCCCC2)nc2cc(NC(=O)c3cccc(Br)c3)ccc21,active: -95% and inconclusive: -57.6%
4,COC(=O)[C@@]12C[C@@H](CC(=O)N3CCOCC3)C(=O)N(Cc3cccc4ccccc34)C1=CCC(C)(C)C2,inactive: 10.5%
5,Cc1cccc(OCc2cc(=O)n3c(-c4ccccc4)csc3n2)c1C,active: -103%
6,CC1CCC2C(C1)c1sc(=O)[nH]c1SC2(C)C (stereo unspecified),inconclusive: -57.3%
7,COc1cccc(CN(C)C(=S)Nc2cccc(C)c2)c1,inconclusive: -54.4%
8,COc1ccc2oc(=O)c(/C(C)=N/Nc3nc(-c4cc(C)ccc4C)cs3)cc2c1,inconclusive: -46%
9,CC(NC(=O)C1CCCN1C(=O)OC(C)(C)C)C(=O)OCc1ccccc1 (stereo unspecified),inconclusive: -42.3%
10,O=C1C=C2c3ccccc3CC(C(=O)O)C2CC1 (stereo unspecified),inactive: 53.1%
11,C=CCN1C(=O)N(CC=C)c2cccc3cccc1c23,inconclusive: -40.1%
12,Cc1ccc2cccc(SCC(=O)Nc3ccc(F)cc3)c2n1,inconclusive: -58.8%
13,C=CCN1C(=O)c2ccccc2NC1c1ccc(Br)s1 (stereo unspecified),inconclusive: -55.7%
14,Cc1c(/C=N/n2cnnc2)c2ccccc2n1CCOc1ccc(Cl)cc1,inconclusive: -40%
15,N=c1ccn(Cc2ccc(F)cc2)cc1,inconclusive: -55.8%
16,Cc1ccc(C)c(OCC(=O)Nc2c[nH]c(=O)[nH]c2=O)c1,inconclusive: -40.6%
17,Cc1ccsc1CN(C)C(=O)CN1C(=O)NC(c2ccccc2)(c2ccccc2)C1=O,inconclusive: -59.6%
18,Cc1cc(S(=O)(=O)N2CCCCC2)ccc1OCC(=O)N1CCCC1,inconclusive: -42.5%
19,CC1(C(=O)Nc2ccc3c(c2)OCCO3)CCC(=O)N1C1CC1 (stereo unspecified),active: -100%
20,CC(C)C[C@@H](CN1CCCC1CN1C(=S)NC[C@@H]1Cc1ccc(O)cc1)N1C[C@H](Cc2ccc(O)cc2)N(CC2CCCCC2)C1=S (stereo partly specified),active: -98.1%
21,CC1=C/C(=N\OS(=O)(=O)c2ccccc2)C(C)=CC1=O,active: -99.6%
22,CCc1ccc(N2CC(C(=O)Nc3ccc4c(c3)OCCO4)CC2=O)cc1 (stereo unspecified),inconclusive: -46.3%

row,Structure (SMILES),"activity change, negative = inhibition"
1,c1cncc(CNc2ncnc3sc4c(c23)CCCC4)c1,inconclusive: -53.2%
2,COc1cccc(N(C(=O)c2csnn2)C(C(=O)NC2CCCC2)c2ccccc2)c1 (stereo unspecified),inconclusive: -40.6%
3,CN(C(=O)COC(=O)/C=C/c1cccs1)C1CCCCC1,inconclusive: -49%
4,O=C(NCC(=O)N(CC1CCCO1)C(C(=O)NC1CCCCC1)c1ccc(F)cc1)c1ccco1 (stereo unspecified),inconclusive: -40.7%
5,CCCOC(=O)CC1C(=O)NCCN1C(=O)OC(C)(C)C (stereo unspecified),inactive: 9.32%
6,Cc1c(NC(=O)c2ccc(CN3CCc4ccccc4C3)cc2)c(=O)n(-c2ccccc2)n1C,inconclusive: -41.9%
7,COc1ccc(N(CC(=O)NCc2ccc(C)cc2)S(=O)(=O)c2c(C)noc2C)cc1,inconclusive: -44.5%
8,CC(C)(C)C1CCC(=NNC(=O)C(=O)NCc2ccco2)CC1 (stereo unspecified),inconclusive: -42.6%
9,CN(CCc1ccccc1)C(=O)c1ccc(NC(=O)Cc2ccc(NC(=O)C3CCN(C(=O)C4CCCC4)CC3)cc2)cc1,active: -70.9%
10,Cc1ccc(C(=O)NC(NC(=O)c2ccc(C)cc2)c2cccc([N+](=O)[O-])c2)cc1,active: -60.2%
11,O=S(=O)(c1ccccc1)N1CCN(c2ncnc3scc(-c4ccccc4)c23)CC1,inconclusive: -58.5%
12,CCOC(=O)NC(=O)/C(C#N)=C\NNc1ncc(C(F)(F)F)cc1Cl,inconclusive: -44.4%
13,NC(=O)CS(=O)(=O)c1nc2ccccc2n1CC(=O)N1CCCCC1,inconclusive: -47.3%
14,CC(C)Oc1ccc(C(=O)/C(=C\c2cccs2)c2nc3ccccc3o2)cc1,active: -72.7%
15,CCOC(=O)C1CCCN(C2=NC(=O)/C(=C/c3ccc(OC)cc3)S2)C1 (stereo unspecified),inconclusive: -42.4%
16,COc1ccc(CCC(C)NCc2ccc(C(F)(F)F)cc2)cc1 (stereo unspecified),inconclusive: -50.4%
17,CN1CCN(C2=C(Cl)C(=O)N(C3CCCCC3)C2=O)CC1,active: -95.3%
18,Cc1cc(C)n2nc(C(=O)Nc3ccn(Cc4ccccc4C)n3)cc2n1,inconclusive: -44.9%
19,COc1ccc(C2c3c(-c4ccccc4O)n[nH]c3C(=O)N2Cc2ccco2)cc1 (stereo unspecified),inconclusive: -49.3%
20,CC(=O)c1cccc(CN2CCCCC2C(=O)Nc2ccc(Oc3ccccc3)nc2)c1 (stereo unspecified),inactive: -34.6%

# Copied from the list:
# Entry of CC(C)Oc1ccc(C(=O)/C(=C\c2cccs2)c2nc3ccccc3o2)cc1 under activity change, negative = inhibition: active: -72.7%
# Entry of CN1CCN(C2=C(Cl)C(=O)N(C3CCCCC3)C2=O)CC1 under activity change, negative = inhibition: active: -95.3%
# Entry of COc1ccc(N(CC(=O)NCc2ccc(C)cc2)S(=O)(=O)c2c(C)noc2C)cc1 under activity change, negative = inhibition: inconclusive: -44.5%

# — PubChem BioAssay AID1259415 (National Center for Advancing Translational Sciences (NCATS), 2018)
